In patent US8697839B2, “GQ protein competitive inhibitory polypeptides, preparation methods and uses thereof” (Third Military Medical University, priority 2008, dated 2014):

Key:
[1] = tested on: myocardial hypertrophy in mice induced by norepinephrine; experiment: myocardial hypertrophy in mice induced by norepinephrine; assay type: in vivo; conditions: x ± s
Description: Fifty of the mice used in the experiment (purchased from Center for Experimental Animals, Third Military Medical University) was assigned into five groups with 10 mice per group. The mice in the control group were administrated with 0.1% ascorbic acid-3 mg % potassium sodium tartrate-physiological saline, The mice in the model group were administrated with 0.1% ascorbic acid-6 mg % norepinephrine bitartrate-physiological saline (equivalent to 1.5 mg/kg NE); The mice in three dosing groups were administrated with the pentadecapeptide, the heptacosapeptide, and the pantapentacontapeptide at 30 μg/kg respectively, while administration of 0.1% ascorbic acid—6 mg % norepinephrine bitartrate—physiological saline. The administration was performed consecutively by intraperitoneal injection (ip), twice a day (bid), for 15 days. The dosing volumes for each group were 50 ml/kg. Then, the animals were sacrificed by cervical dislocation. The heart was removed by thoracotomy, washed with the chilled physiological saline to get rid of blood stain, blotted with filter paper, weighed on a scale. The atriums and the right ventricle were carefully removed (with the interventricular septum left), and the left ventricle was weighed.

[2] = tested on: myocardial hypertrophy in rats induced by norepinephrine; experiment: myocardial hypertrophy in rats induced by norepinephrine; assay type: in vivo, Wistar rats; conditions: polypeptide 15 μg/kg ip bid 20 days with norepinephrine; n = 6, x ± s
Description: Thirty of Wistar rats were selected and assigned into five groups with 6 rats per group. The rats in the control group were administrated with 0.1% ascorbic acid-3 mg % potassium sodium tartrate-physiological saline; the rats in the model group were administrated with 0.1% ascorbic acid-6 mg % norepinephrine bitartrate-physiological saline; the rats in the three dosing groups were administrated with the pentadecapeptide, the heptacosapeptide, and the pantapentacontapeptide at 15 μg/kg respectively, while administration of norepinephrine. The dosing volume for each group was 33 ml/kg, and the administration was performed consecutively by ip, bid, for 20 days. At that time, the heart and left ventricle were weighed.

[3] = tested on: rats with spontaneous hypertension (SHR); experiment: myocardial remodeling and blood pressure in rats with spontaneous hypertension (SHR); assay type: in vivo, rat; conditions: losartan 6 mg/kg intragastric qd, eight weeks, x ± s, n = 6
Description: 1. Thirty 13-week-old rats with spontaneous hypertension (SHR, purchased from Beijing Vital River Laboratory Animal Technology Co. Ltd., Beijing) were selected and randomly assigned into five groups with 6 rats per group:
SHR model group (Vehicle): 0.9% physiological saline, intraperitoneal injection at a dosage of 5 ml/kg, bid.
Positive control group (losartan): potassium losartan at a dosage of 6 mg/kg, intragastric administration, qd.
The pentadecapeptide group: administration of the pentadecapeptide at a dosage of 30 μg/kg by intraperitoneal injection, bid.
The heptacosapeptide group: administration of the heptacosapeptide at a dosage of 30 μg/kg by intraperitoneal injection, bid.
The pantapentacontapeptide group: administration of the pantapentacontapeptide at a dosage of 30 μg/kg by intraperitoneal injection, bid.
Six of INKY (Wistar-Kyoto) rats (purchased from Center for Experimental Animals, Third Military Medical University) were additionally selected as the normal control.
2. Intervention with the drug was performed consecutively for eight weeks (from Week 14 to Week 21). The body weights of all the tested rats were obtained once every two weeks, and the administration dosage was adjustedbased on body weights.

## Pentadecapeptide: SEQ ID NO: 9, obtained by deleting amino acid residues 1 to 40 at the N-terminal of SEQ ID NO: 1 (KDTILQLNLKEYNLV; listed as Homo sapiens)
[1]; polypeptide 30 μg/kg ip bid 15 days with NE
  BW (body weight): 23.6 ± 2.51 g
[2]
  BW (body weight): 188 ± 12 g

## CCCCc1nc(Cl)c(CO)n1Cc1ccc(-c2ccccc2-c2nn[nH]n2)cc1 [Losartan, potassium losartan]
[3]
  BW: 288 ± 9 g

## NC[C@H](O)c1ccc(O)c(O)c1 [NE, norepinephrine, reference compound]
[1]; NE model group: equivalent to 1.5 mg/kg NE ip bid 15 days, alone
  BW (body weight): 23.2 ± 1.69 g
